According to patent publication US20140004243A1, “SALTY TASTE ENHANCER” (AJINOMOTO CO., INC., priority 2011, published 2014):

Tested on: human
Assay: Sensory evaluation of strength of bitter taste in human
Format: in vivo
Conditions: 0 = no bitter taste, 5.0 = 0.001 g/dl capsazepine
[1] = sample 0.0001 g/dl in 0.8 g/dl sodium chloride
[2] = sample 0.0005 g/dl in 0.8 g/dl sodium chloride
[3] = sample 0.001 g/dl in 0.8 g/dl sodium chloride

SMILES | strength of bitter taste [1] [points] | strength of bitter taste [2] [points] | strength of bitter taste [3] [points]
OC[C@@H](NC(=S)NCCc1ccccc1)c1ccccc1 [Example 51] | 0.01 | 0.11 | 0.40
Oc1cc2c(cc1O)CN(C(=S)NCCc1ccc(Cl)cc1)CCC2 [capsazepine] | 0.8 | 2.6 | 5.0
C[C@@H](NC(=S)NCCc1ccccc1)c1ccccc1 [Example 11] | 0.09 | 0.12 | 0.16
